Experimental data reported in patent US11702635B2, “Hematopoietic stem cell expansion method” (PLASTICELL LIMITED, priority 2017, dated 2023).

System: UCB CD133+ cells (HSPC)
Assay: Ex vivo expansion of umbilical cord blood CD133+ cells, flow cytometry and cell counting
Assay type: cell-based, human
From the text: Human UCB units were collected with written informed pre-consent and ethical approval from Oxford and Berkshire National Research Ethical Committees and studies conducted with approval of the NHSBT research committee. UCB mononuclear cells (MNC) were isolated by density gradient centrifugation on lymphocyte separation medium 1077 (PAA Laboratories, Pasching, Austria; density<1.077 g/ml). CD133+ cells were isolated from the MNC with immunomagnetic beads (Miltenyi Biotec, Germany). After isolation, the cells were cryopreserved in 10% DMSO in FCS (fetal calf serum) and stored at −150° C. in aliquots of 1×10^5 cells/vial. Cells were analysed for the purity of the isolation with flow cytometry on a BD LSR II (BD Biosciences, CA) using CD34-APC, CD133-PE and the appropriate isotype controls (all Miltenyi Biotec). […]
The next day cells were harvested from the plates counted, and seeded into 24 well Nanex plates (Compass Biomedical) or standard tissue culture treated plates at 2500 cells/well in 1 mL basal media (StemSpan ACF with 100 ng/mL SCF, 100 ng/mL FLT3LG and 20 ng/mL TPO) containing an HDAC inhibitor (for most experiments scriptaid was used at a concentration of 1 μM). […]
Cell number was measured using flow cytometry with the aid of counting beads (CountBright beads Life Technologies).

With Cc1ccc(C(=O)NCCCCCC(=O)Nc2ccccc2N)cc1 [RG2833] the “fold expansion of total nucleated cells (TNC) compared to cells grown in basal media” value (5 day culture, HDAC inhibitor with cytokines, with or without WR1065 (100 μM), vs basal media containing cytokines) was “increase” and the “fold expansion of HSC compared to cells grown in basal media” value (expansion protocol as defined above, HDAC inhibitor with or without WR1065) was “doubled”.
